Results from the supplement of paper PMC8960247.
Counter-ions that a name gives are not always drawn. Single values of this set are uncertain.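 Viability of TSC2-lost, immortalized human renal angiomyolipoma cells bearing an empty vector was measured by luminescent ATP assay, normalized to each plate's vehicle-treated wells, in low-serum medium, where TSC2-rescued cells do not grow.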

Tested on: 621-102 (TSC2-deficient)
Test: relative viability vs DMSO (fraction); higher = less cytotoxic
Details: serum: 0.1% FBS, 72 h

SMILES | relative viability (0.0128 nM) | relative viability (0.064 nM) | relative viability (0.32 nM) | relative viability (1.6 nM) | relative viability (8 nM) | relative viability (40 nM) | relative viability (200 nM) | relative viability (1000 nM) | relative viability (5000 nM)
CCO[C@@H]1OC(=O)C[C@@H]1NC(=O)[C@@H]1CCCN1C(=O)[C@@H](NC(=O)c1ccc(N)c(Cl)c1)C(C)(C)C [VX-765] | 0.708 | 0.763 | 0.877 | 0.805 | 0.654 | 0.615 | 0.603 | 0.68 | 0.563
CC(C)(C)c1cc(C(C)(C)C)c(NC(=O)c2c[nH]c3ccccc3c2=O)cc1O [VX-770] | 0.889 | 0.883 | 0.855 | 0.838 | 0.776 | 0.735 | 0.74 | 0.729 | 0.544
CCCCC(=O)N(Cc1ccc(-c2ccccc2-c2nnn[nH]2)cc1)[C@H](C(=O)O)C(C)C [Valsartan] | 0.96 | 0.898 | 0.865 | 0.877 | 0.916 | 0.79 | 0.82 | 0.768 | 0.786
COc1cc2/c(=N/c3ccc(Br)cc3F)nc[nH]c2cc1OCC1CCN(C)CC1 [Vandetanib] | 0.557 | 0.56 | 0.531 | 0.485 | 0.542 | 0.611 | 0.725 | 0.605 | 0.369
CCCc1nc(C)c2c(=O)nc(-c3cc(S(=O)(=O)N4CCN(CC)CC4)ccc3OCC)[nH]n12 [Vardenafil HCl Trihydrate] | 0.907 | 0.796 | 0.791 | 0.844 | 0.776 | 0.758 | 0.69 | 0.79 | 0.774
Clc1ccc(Nc2nnc(Cc3ccncc3)c3ccccc23)cc1 [Vatalanib] | 0.638 | 0.79 | 0.738 | 0.748 | 0.664 | 0.575 | 0.66 | 0.457 | 0.509
COc1ccc(C(CN(C)C)C2(O)CCCCC2)cc1 (stereo not given) [Venlafaxine] | 0.655 | 0.721 | 0.807 | 0.799 | 0.786 | 0.782 | 0.661 | 0.714 | 0.736
COC[C@@H](c1ccc(C(F)(F)F)cc1)N1CCN(C2(C)CCN(C(=O)c3c(C)ncnc3C)CC2)C[C@@H]1C [Vicriviroc Malate] | 0.856 | 0.802 | 0.771 | 0.822 | 0.756 | 0.798 | 0.77 | 0.739 | 0.642
CC[C@]12C=CCN3CC[C@@]4(c5cc([C@@]6(C(=O)OC)C[C@@H]7C[C@@H](C(C)(F)F)CN(Cc8c6[nH]c6ccccc86)C7)c(OC)cc5N(C)[C@H]4[C@@](O)(C(=O)OC)[C@@H]1OC(C)=O)[C@@H]32 [Vinflunine Tartrate] | 0.942 | 0.974 | 0.988 | 0.837 | 0.438 | 0.0619 | 0.0561 | 0.0318 | 0.0295
CCC1=C[C@@H]2CN(C1)Cc1c([nH]c3ccccc13)[C@@](C(=O)OC)(c1cc3c(cc1OC)N(C)[C@H]1[C@@](O)(C(=O)OC)[C@H](OC(C)=O)[C@]4(CC)C=CCN5CC[C@@]31[C@H]54)C2 [Vinorelbine(Navelbine)] | 0.287 | 0.863 | 0.853 | 0.219 | 0.035 | 0.0213 | 0.0184 | 0.0187 | 0.0182
O=C(CCCCCCC(=O)Nc1ccccc1)NO [Vorinostat] | 0.737 | 0.738 | 0.68 | 0.555 | 0.715 | 0.704 | 0.606 | 0.366 | 0.134
c1cncc(CN2CCC(n3ncc4c(N5CCOCC5)nc(-c5ccc6[nH]ccc6c5)nc43)CC2)c1 [WAY-600] | 1.14 | 1.14 | 1.21 | 1.08 | 0.843 | 0.587 | 0.778 | 0.793 | 0.0197
CCC[C@H](NC(=O)/C(C#N)=C/c1cccc(Br)n1)c1ccccc1 [WP1130] | 0.639 | 1.15 | 0.924 | 0.961 | 0.926 | 0.509 | 0.205 | 0.0233 | 0.026
COC(=O)Nc1ccc(-c2nc(N3CCOCC3)c3cnn(C4CCN(C(=O)OC)CC4)c3n2)cc1 [WYE-354] | 1.22 | 1.49 | 1.49 | 0.972 | 0.499 | 0.62 | 1.01 | 1.21 | 0.703
COC(=O)Nc1ccc(-c2nc(N3CCOCC3)c3cnn(C4CCN(Cc5cccnc5)CC4)c3n2)cc1 [WYE-687] | 0.0918 | 0.439 | 0.787 | 0.773 | 0.701 | 0.857 | 0.918 | 0.778 | 0.303
C=CC(=O)Nc1cccc(Oc2nc(Nc3ccc(N4CCN(C)CC4)cc3)ncc2Cl)c1 [WZ3146] | 0.789 | 0.782 | 0.828 | 0.355 | 0.776 | 0.764 | 0.647 | 0.0565 | 0.00569
C=CC(=O)Nc1cccc(Oc2nc(Nc3ccc(N4CCN(C)CC4)cc3OC)ncc2Cl)c1 [WZ4002] | 0.904 | 0.896 | 1.02 | 0.886 | 0.847 | 0.844 | 0.777 | 0.69 | 0.351
C=CC(=O)Nc1cccc(Sc2nc(Nc3ccc(N4CCN(C)CC4)cc3)ncc2Cl)c1 [WZ8040] | 0.82 | 0.85 | 0.939 | 0.857 | 0.89 | 0.847 | 0.828 | 0.813 | 0.655
Oc1nc(-c2ccc(C(F)(F)F)cc2)nc2c1CSCC2 [XAV-939] | 0.42 | 0.416 | 0.551 | 0.731 | 0.755 | 0.796 | 0.782 | 0.719 | 0.693
COc1cc2nccc(Oc3ccc(NC(=O)C4(C(=O)Nc5ccc(F)cc5)CC4)cc3)c2cc1OC [XL184] | 0.551 | 0.798 | 0.814 | 0.736 | 0.87 | 0.806 | 0.82 | 0.547 | 0.00711
COCC[n+]1c2c(n(Cc3cnccn3)c1C)C(=O)c1ccccc1C2=O [YM155] | 0.853 | 0.788 | 0.842 | 0.697 | 0.553 | 0.481 | 0.369 | 0.323 | 0.0338
COC(=O)[C@@H]1[C@H]2C[C@H]3c4[nH]c5ccccc5c4CCN3C[C@@H]2CC[C@@H]1O [Yohimbine hydrochloride] | 0.93 | 0.955 | 0.828 | 0.847 | 0.831 | 0.865 | 0.832 | 0.79 | 0.733
FC(F)c1nc2ccccc2n1-c1nc(N2CCOCC2)nc(N2CCOCC2)n1 [ZSTK474] | 0.875 | 0.96 | 1.05 | 1.09 | 1.04 | 0.91 | 0.643 | 0.504 | 0.446
Nc1ccn([C@H]2CC[C@@H](CO)O2)c(=O)n1 [Zalcitabine] | 0.545 | 0.603 | 0.555 | 0.66 | 0.555 | 0.56 | 0.564 | 0.498 | 0.541
COc1nc(C)cnc1NS(=O)(=O)c1cccnc1-c1ccc(-c2nnco2)cc1 [Zibotentan (ZD4054)] | 0.902 | 0.884 | 0.92 | 0.982 | 0.918 | 0.77 | 0.767 | 0.811 | 0.559

Whole records, looked up by structure. Values in the order: relative viability (0.0128 nM)	relative viability (0.064 nM)	relative viability (0.32 nM)	relative viability (1.6 nM)	relative viability (8 nM)	relative viability (40 nM)	relative viability (200 nM)	relative viability (1000 nM)	relative viability (5000 nM)
CCCc1nc(C)c2c(=O)nc(-c3cc(S(=O)(=O)N4CCN(CC)CC4)ccc3OCC)[nH]n12 [Vardenafil HCl Trihydrate] is entered as 0.907	0.796	0.791	0.844	0.776	0.758	0.69	0.79	0.774
COc1ccc(C(CN(C)C)C2(O)CCCCC2)cc1 (stereo not given) [Venlafaxine] is entered as 0.655	0.721	0.807	0.799	0.786	0.782	0.661	0.714	0.736
